Earlier results, collected in US20050119179A1, “Inositol 1, 4, 5-triphosphate receptor (type 1), phosphorylation and modulation by CDC2” (priority 2003, published 2005).
At least one structure is not confirmed: it was looked up by name or label, or the drawing left a doubt.

System: syncytial cell death induced by HIV infection
Details: inhibition of cdc2 activity; cited from earlier work

In the case of `Cn1cnc2c(NCc3ccccc3)nc(NCCO)nc21` [olomoucine], the “syncytial cell death induced by HIV infection” value is given as “prevented syncytial cell death”.
